Measurements reported in PubChem BioAssay AID493246 (Drosophila RNAi Screening Center, 2011).
The deposit covers about 21,000 reagents; below is an unselected part of those that have a named target and a result. Of all reagents, 429 (2%) got an active call. 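Values are raw and not normalised between plates; calls rest on per-plate z-scores that were not deposited.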 A number with no mark means an inactive call. Names joined by + are all predicted targets of the reagent. No sequences are given here. The record does not give: the amount of reagent, the time to read-out.

- Test: 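Genome-wide search for dsRNAs that reduce cell number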 (primary screen)
- System: Drosophila Kc and S2R+ cells
- Reagents: long dsRNA against Drosophila genes
- Measured: 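Raw, unnormalised count of remaining cells in each well; per-plate z-scores of cell number underlie the calls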
- Scale: Kc cell number and S2R+ cell number: higher = more cells remaining
- Call rule: 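Counted as a hit if cell number falls by a z-score of at least 3 within its plate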

gene | dsRNA | Kc cell number, rep 1 | Kc cell number, rep 2 | S2R+ cell number, rep 1 | S2R+ cell number, rep 2
KdelR | DRSC03353 | 1.22e6 | 1.36e6 | 1.13e6 | 1.22e6
Hgsnat | DRSC18405 | 5.55e5 | – | 8.80e5 | –
PpD6 | DRSC00774 | 1.53e6 | 1.49e6 | 1.15e6 | 1.27e6
CG17549 | DRSC02625 | 1.44e6 | 1.49e6 | 1.38e6 | 1.41e6
Dlic | DRSC19824 | 5.37e5 | – | 7.29e5 | –
Trf | DRSC03462 | 1.50e6 | 1.56e6 | 1.16e6 | 1.29e6
ktub | DRSC04551 | 1.46e6 | 1.57e6 | 1.08e6 | 1.09e6
CG6688 | DRSC16094 | 1.43e6 | 1.53e6 | 9.78e5 | 1.10e6
RpS5a | DRSC20282 | 1.35e6 | 1.35e6 | 8.15e5 | 9.47e5
Blimp-1 | DRSC10496 | 1.44e6 | 1.53e6 | 1.25e6 | 1.26e6
Ir48a | DRSC05301 | 1.43e6 | 1.56e6 | 1.13e6 | 1.14e6
CG33286 | DRSC11691 | 1.39e6 | 1.43e6 | 1.30e6 | 1.41e6
CG1722 | DRSC20547 | 1.55e6 | 1.54e6 | 1.17e6 | 1.23e6
shu | DRSC04484 | 1.39e6 | 1.46e6 | 1.12e6 | 1.15e6
CG6709 + Hez | DRSC10165 | 1.24e6 | 1.33e6 | 1.31e6 | 1.32e6
CG6709 + Hez | DRSC10698 | 1.35e6 | 1.38e6 | 1.30e6 | 1.34e6
CG8191 | DRSC20091 | 1.56e6 | 1.59e6 | 1.14e6 | 1.18e6
CG18810 | DRSC02701 | 1.62e6 | 1.74e6 | 1.23e6 | 2.69e5
CG13293 | DRSC09967 | 1.45e6 | 1.38e6 | 1.11e6 | 1.22e6
CG7220 | DRSC05235 | 1.61e6 | 1.51e6 | 1.05e6 | 1.20e6
CG7220 | DRSC07018 | 1.84e6 | 1.71e6 | 1.44e6 | 1.58e6
Rab11 | DRSC16809 | 1.58e6 | 1.72e6 | 7.12e5 | 8.05e5
Miro | DRSC15795 | 1.55e6 | 1.58e6 | 1.27e6 | 1.33e6
vari | DRSC03202 | 1.45e6 | 1.56e6 | 1.35e6 | 3.28e5
NimC1 | DRSC01879 | 1.56e6 | 1.61e6 | 1.25e6 | 1.38e6
CG31321 | DRSC13028 | 1.38e6 | 1.59e6 | 1.05e6 | 1.14e6
CG7755 | DRSC07040 | 1.74e6 | 1.83e6 | 1.12e6 | 1.30e6
Orai | DRSC05684 | 5.79e5 | – | 7.94e5 | –
HIPP1 | DRSC11748 | 1.72e6 | 1.79e6 | 1.29e6 | 1.36e6
CG9967 | DRSC00742 | 1.74e6 | 1.56e6 | 1.04e6 | 1.14e6
H | DRSC16692 | 1.21e6 | 1.19e6 | 1.09e6 | 1.17e6
Ltn1 | DRSC11056 | 1.44e6 | 1.55e6 | 1.03e6 | 1.08e6
Ltn1 | DRSC11058 | 1.32e6 | 1.41e6 | 1.22e6 | 1.28e6
CG34008 | DRSC13428 | 1.44e6 | 1.39e6 | 1.07e6 | 1.10e6
Task6 | DRSC16530 | 1.28e6 | 1.28e6 | 1.16e6 | 1.23e6
CG3339 | DRSC13821 | 1.00e6 | 1.37e6 | 1.06e6 | 1.01e6
CG3339 | DRSC15479 | 1.65e6 | 1.68e6 | 1.08e6 | 1.19e6
CG30398 | DRSC03891 | 4.80e5 | – | 7.95e5 | –
Wnt6 | DRSC02795 | 1.78e6 | 1.91e6 | 1.32e6 | 1.53e6
CG13962 | DRSC02304 | 1.58e6 | 1.63e6 | 1.24e6 | 2.72e5
CG8360 | DRSC03085 | 1.71e6 | 1.72e6 | 1.21e6 | 1.34e6
Adgf-C | DRSC16473 | 1.25e6 | 1.30e6 | 9.99e5 | 1.16e6
slow | DRSC08589 | 1.40e6 | 1.42e6 | 1.33e6 | 1.27e6
slow | DRSC08590 | 1.63e6 | 1.49e6 | 1.10e6 | 1.19e6
Tim13 | DRSC09848 | 1.27e6 | 1.42e6 | 1.24e6 | 1.34e6
CG11828 | DRSC14394 | 1.52e6 | 1.59e6 | 1.05e6 | 1.19e6
CG7083 | DRSC11136 | 1.56e6 | 1.44e6 | 1.09e6 | 1.13e6
Sin3A | DRSC07552 | 1.18e6 | 1.18e6 | 7.52e5 | 8.60e5
Atg16 | DRSC15052 | 5.40e5 | – | 8.61e5 | –
Atg16 | DRSC15300 | 1.39e6 | 1.46e6 | 9.83e5 | 1.07e6
Atg16 | DRSC15375 | 1.42e6 | 1.47e6 | 1.02e6 | 1.10e6
PlexB | DRSC17177 | 1.58e6 | 1.59e6 | 1.03e6 | 1.17e6
CG12730 | DRSC17885 | 1.55e6 | 1.55e6 | 1.03e6 | 1.11e6
pirk | DRSC04269 | 1.51e6 | 1.58e6 | 1.25e6 | 3.39e5
Nepl17 | DRSC14880 | 1.55e6 | 1.58e6 | 1.09e6 | 1.20e6
ClpP | DRSC02806 | 1.39e6 | 1.37e6 | 1.19e6 | 1.32e6
CG32299 + CG32298 | DRSC07980 | 1.44e6 | 1.41e6 | 9.66e5 | 1.12e6
CG32985 | DRSC02634 | 1.64e6 | 1.62e6 | 1.20e6 | 1.30e6
CG4751 | DRSC02776 | 1.36e6 | 1.40e6 | 1.17e6 | 1.25e6
CG15529 | DRSC15066 | 1.48e6 | 1.54e6 | 1.13e6 | 1.19e6
ATPsynB | DRSC09659 | 1.01e6 | 1.24e6 | 1.01e6 | 6.01e5
CG14891 | DRSC15013 | 1.51e6 | 1.67e6 | 1.13e6 | 1.22e6
Tsc1 | DRSC16890 | 1.52e6 | 1.56e6 | 1.12e6 | 1.15e6
CG13016 | DRSC06271 | 1.91e6 | 1.93e6 | 1.37e6 | 1.56e6
CG32373 | DRSC08895 | 1.49e6 | 1.48e6 | 1.20e6 | 1.37e6
Pnn | DRSC16415 | 1.45e6 | 1.55e6 | 1.21e6 | 1.32e6
RpS6 | DRSC18712 | 3.79e5 | – | 6.81e5 | –
Smg6 | DRSC16029 | 1.65e6 | 1.64e6 | 1.32e6 | 1.38e6
CG15533 | DRSC15069 | 1.49e6 | 1.51e6 | 9.75e5 | 1.08e6
Ada2a | DRSC16206 | 1.42e6 | 1.63e6 | 1.05e6 | 1.10e6
Sp7 | DRSC15461 | 1.41e6 | 1.53e6 | 1.26e6 | 1.36e6
SMSr | DRSC10998 | 1.49e6 | 1.53e6 | 1.26e6 | 1.21e6
SMSr | DRSC10999 | 1.58e6 | 1.46e6 | 1.08e6 | 1.11e6
Cdc50 | DRSC20224 | 1.72e6 | 1.73e6 | 1.09e6 | 1.19e6
CheB53a | DRSC06625 | 1.49e6 | 1.53e6 | 1.18e6 | 1.28e6
